Laboratory results reported in article PMC9444247.
Changes are numbered by the printed parent chain. Results are given in words; binding and its absence hold for the method and conditions named. In cells and extracts the contact can be indirect. A result given as binding can be weak or reduced; the word gives no strength. Sequences can lack the tags named with a protein.

Columns and labels:
Assay in all cases: co-IP; EGFP fusion (bait) expressed in HEK293T with the co-transfected or endogenous partner; lysis in 50 mM Tris-HCl pH 7.5, 150 mM NaCl, 1% Igepal CA-630; EGFP fusions immunoprecipitated with GFP-Trap magnetic agarose beads for 2 hr or overnight at 4 °C; Western blot
[1] = target: T1, EGFP-INPP5E (wild type) (human) (UniProt Q9NRR6)
T1 sequence (chain, CaaX box cysteine C641 farnesylated in cells, as the paper says of INPP5E): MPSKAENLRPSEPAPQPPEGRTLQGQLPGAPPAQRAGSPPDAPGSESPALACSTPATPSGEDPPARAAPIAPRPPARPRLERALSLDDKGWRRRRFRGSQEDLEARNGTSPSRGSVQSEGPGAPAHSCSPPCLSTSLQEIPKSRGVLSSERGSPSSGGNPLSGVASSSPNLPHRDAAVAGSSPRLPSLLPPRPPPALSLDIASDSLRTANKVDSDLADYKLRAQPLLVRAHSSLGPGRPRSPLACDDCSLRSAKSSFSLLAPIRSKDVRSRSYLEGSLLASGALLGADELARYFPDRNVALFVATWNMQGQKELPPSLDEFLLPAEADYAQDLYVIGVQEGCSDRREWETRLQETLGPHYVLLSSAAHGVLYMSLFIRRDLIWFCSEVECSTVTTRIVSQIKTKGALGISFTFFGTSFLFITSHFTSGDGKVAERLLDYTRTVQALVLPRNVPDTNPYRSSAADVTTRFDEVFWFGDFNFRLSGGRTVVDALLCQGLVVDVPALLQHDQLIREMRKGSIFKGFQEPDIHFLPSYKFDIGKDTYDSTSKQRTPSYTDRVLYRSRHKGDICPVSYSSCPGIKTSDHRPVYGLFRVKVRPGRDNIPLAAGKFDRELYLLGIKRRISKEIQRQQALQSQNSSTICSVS

[2] = target: T2, EGFP-INPP5E (1-283) (human) (UniProt Q9NRR6)
T2 sequence: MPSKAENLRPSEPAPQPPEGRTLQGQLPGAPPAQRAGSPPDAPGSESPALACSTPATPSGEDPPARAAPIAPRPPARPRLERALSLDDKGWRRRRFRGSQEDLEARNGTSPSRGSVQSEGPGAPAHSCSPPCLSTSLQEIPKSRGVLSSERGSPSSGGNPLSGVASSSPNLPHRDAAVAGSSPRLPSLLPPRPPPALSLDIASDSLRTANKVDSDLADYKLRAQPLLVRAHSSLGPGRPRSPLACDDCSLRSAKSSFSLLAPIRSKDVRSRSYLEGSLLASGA

[3] = target: T3, EGFP-INPP5E (Δ251–273+C641S) (human) (UniProt Q9NRR6)
T3 sequence: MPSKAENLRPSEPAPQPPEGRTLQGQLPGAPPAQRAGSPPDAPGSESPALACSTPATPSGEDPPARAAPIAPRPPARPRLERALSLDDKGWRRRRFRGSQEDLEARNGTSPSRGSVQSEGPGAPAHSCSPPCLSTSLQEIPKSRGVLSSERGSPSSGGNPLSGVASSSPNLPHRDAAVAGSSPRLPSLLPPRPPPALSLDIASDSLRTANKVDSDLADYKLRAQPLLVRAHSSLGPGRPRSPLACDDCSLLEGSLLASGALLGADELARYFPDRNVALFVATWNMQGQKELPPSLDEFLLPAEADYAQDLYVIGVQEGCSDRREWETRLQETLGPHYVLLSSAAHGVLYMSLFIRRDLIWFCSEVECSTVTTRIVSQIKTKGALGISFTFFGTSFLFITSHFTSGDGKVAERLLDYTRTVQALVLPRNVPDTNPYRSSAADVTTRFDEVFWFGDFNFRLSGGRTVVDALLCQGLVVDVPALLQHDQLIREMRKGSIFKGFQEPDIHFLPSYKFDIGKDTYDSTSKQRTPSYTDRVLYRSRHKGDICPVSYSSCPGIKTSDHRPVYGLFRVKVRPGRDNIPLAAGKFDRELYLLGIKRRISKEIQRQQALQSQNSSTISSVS

[4] = target: T4, EGFP-INPP5E (Δ251–273) (human) (UniProt Q9NRR6)
T4 sequence (chain, CaaX box cysteine C641 farnesylated in cells, as the paper says of INPP5E): T3 sequence with S618C

[5] = target: T5, EGFP-INPP5E (W383A) (human) (UniProt Q9NRR6)
T5 sequence (chain, CaaX box cysteine C641 farnesylated in cells, as the paper says of INPP5E): T1 sequence (chain, CaaX box cysteine C641 farnesylated in cells, as the paper says of INPP5E) with W383A

[6] = target: T6, EGFP-INPP5E (251-644) (human) (UniProt Q9NRR6)
T6 sequence (chain, CaaX box cysteine C641 farnesylated in cells, as the paper says of INPP5E): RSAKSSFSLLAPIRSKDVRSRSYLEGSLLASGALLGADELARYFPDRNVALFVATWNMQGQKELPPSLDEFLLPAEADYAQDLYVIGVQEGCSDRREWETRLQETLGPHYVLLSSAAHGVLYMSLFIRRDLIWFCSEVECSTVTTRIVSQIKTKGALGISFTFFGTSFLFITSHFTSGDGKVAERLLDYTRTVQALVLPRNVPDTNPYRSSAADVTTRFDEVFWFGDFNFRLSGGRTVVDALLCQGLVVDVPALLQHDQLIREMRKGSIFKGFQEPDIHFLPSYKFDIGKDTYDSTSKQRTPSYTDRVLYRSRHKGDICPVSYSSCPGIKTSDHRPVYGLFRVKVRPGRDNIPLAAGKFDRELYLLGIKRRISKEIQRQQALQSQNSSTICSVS

[7] = target: T7, EGFP-INPP5E (C641S) (human) (UniProt Q9NRR6)
T7 sequence: T1 sequence (chain, CaaX box cysteine C641 farnesylated in cells, as the paper says of INPP5E) with C641S

[8] = target: T8, EGFP-INPP5E (FDR609AAA) (human) (UniProt Q9NRR6)
T8 sequence (chain, CaaX box cysteine C641 farnesylated in cells, as the paper says of INPP5E): T1 sequence (chain, CaaX box cysteine C641 farnesylated in cells, as the paper says of INPP5E) with F609A, D610A, R611A

Substance	binding [1]	binding [2]	binding [3]	binding [4]	binding [5]	binding [6]	binding [7]	binding [8]
CSNK2A1-myc (mouse) (enzyme)	no binding	–	–	–	–	–	–	–
TULP3-myc (human)	binds	binds weakly	binds	binds	binds weakly	binds	binds	binds weakly
Flag-ATG16L1 (human)	binds	binds weakly	binds weakly	binds	binds	binds	binds	binds
ARL13B-Flag (human)	–	–	–	–	binds	–	–	–
Flag-PDE6D (human)	binds	no binding	no binding	binds	binds	binds	no binding	binds
Flag-RPGR (human)	binds	no binding	no binding	binds	binds	binds	no binding	binds
